Experimental data reported in the supplement of paper PMC10398353.
Structures can show the parent of a compound that is named as a salt. ± gives the standard deviation of the averaged measurements. The list shows a part of the results. Single values of this set are uncertain.

Each molecule was assayed on Salmonella enterica serovar Typhimurium ST313 D23580 (assay: normalized bacterial growth (OD600 20 h minus 0 h, interquartile-mean normalized) (fraction of plate interquartile mean); higher = more bacterial growth (less inhibition)). Conditions: LPM (pH 5.8, low phosphate, low Mg2+), concentration: 10 µM, temperature: 37 °C.

Compound | normalized bacterial growth
CCC(=O)O[C@H]1CC[C@H]2[C@@H]3CCC4=CC(=O)CC[C@]4(C)[C@H]3CC[C@]12C [Testosterone propionate] | 0.706
CCC(=O)O[C@H]1CC[C@H]2[C@@H]3CCC4=CC(=O)CC[C@]4(C)[C@H]3CC[C@]12C | 0.462
C[N+]1(C)C2CCC1CC(OC(=O)c1c[nH]c3ccccc13)C2 (stereo unspecified) [3-Tropanylindole-3-carboxylate methiodide] | 1.31
N#C/C(=C\c1ccc(O)c(O)c1)C(N)=S [Tyrphostin 47] | 1.15
c1ccc2sc(C3(N4CCCCC4)CCCCC3)cc2c1 [BTCP hydrochloride] | 1.01
COc1cc2c(cc1O)C[C@H]1c3c(cc(O)c(OC)c3-2)CCN1C | 0.994 ± 0.034
C[C@H]1CC[C@]2(NC1)O[C@H]1C[C@H]3[C@@H]4CC[C@H]5C[C@@H](O[C@@H]6O[C@H](CO)[C@H](O[C@@H]7O[C@H](CO)[C@@H](O)[C@H](O[C@@H]8OC[C@@H](O)[C@H](O)[C@H]8O)[C@H]7O[C@@H]7O[C@H](CO)[C@@H](O)[C@H](O)[C@H]7O)[C@H](O)[C@H]6O)CC[C@]5(C)[C@H]4CC[C@]3(C)[C@H]1[C@@H]2C [Tomatine] | 0.798
C[C@H]1CC[C@]2(NC1)O[C@H]1C[C@H]3[C@@H]4CC[C@H]5C[C@@H](O[C@@H]6O[C@H](CO)[C@H](O[C@@H]7O[C@H](CO)[C@@H](O)[C@H](O[C@@H]8OC[C@@H](O)[C@H](O)[C@H]8O)[C@H]7O[C@@H]7O[C@H](CO)[C@@H](O)[C@H](O)[C@H]7O)[C@H](O)[C@H]6O)CC[C@]5(C)[C@H]4CC[C@]3(C)[C@H]1[C@@H]2C | 0.852
CC1(C)C(=O)C=C[C@@]2(C)C1=C(O)C(=O)[C@]1(C)[C@@H]2CC[C@@]2(C)[C@H](c3ccoc3)C[C@H]3O[C@]321 | 0.972
C[C@H]1OC[C@@H](C[N+](C)(C)C)O1 [(+)-cis-Dioxolane] | 1.15
COc1ccc(C(=O)OC2C[C@H]3CC[C@@H](C2)N3C)cc1OC (stereo partly specified) [Convolamine hydrochloride] | 1.02
O=C(CCCN1CCC(n2c(=O)[nH]c3ccccc32)CC1)c1ccc(F)cc1 [Benperidol] | 0.996
O=C1CCO1 | 0.878
Cc1c(O)c(O)cc2c1CC=C1[C@@]2(C)CC[C@@]2(C)[C@@H]3C[C@](C)(C(=O)O)CC[C@]3(C)CC[C@]12C | 1.34
CC(=O)O[C@@H]1C[C@H]2C(C)(C)C(=O)C=C[C@]2(C)[C@H]2CC[C@]3(C)C(=CC(=O)O[C@H]3c3ccoc3)[C@@]21C | 0.778
OC(c1ccccc1)(c1ccccc1)C1CCNCC1 [Azacyclonol] | 1.14

Exported in markdown: entries from further up.

| Compound | normalized bacterial growth |
| --- | --- |
| CCC(=O)O[C@H]1CC[C@H]2[C@@H]3CCC4=CC(=O)CC[C@]4(C)[C@H]3CC[C@]12C [Testosterone propionate] | 0.706 |
| N#C/C(=C\c1ccc(O)c(O)c1)C(N)=S [Tyrphostin 47] | 1.15 |

(listing goes on)

Compound | normalized bacterial growth
NC1CCc2cc(O)c(O)cc2C1 (stereo unspecified) ["6,7-ADTN hydrobromide"] | 1.21
N[C@@H]1C[C@H]1c1ccccc1.N[C@H]1C[C@@H]1c1ccccc1 | 1.11
C[N+]1(C)CCCC(OC(=O)C(O)(c2ccccc2)c2ccccc2)C1 (stereo unspecified) | 1.15
COc1cc(OC)c(OC)cc1C=O | 1.07
CN1C2CCC1CC(O)C2 (stereo unspecified) | 1.24 ± 0.26
COc1cc([C@@H]2c3cc4c(cc3[C@@H](O)[C@H]3COC(=O)[C@H]23)OCO4)cc(OC)c1O | 1.02
C/C(O)=C(\C#N)C(=O)Nc1cc(Br)ccc1Br | 1.24
C[C@@]12C(=O)OC(=O)[C@]1(C)[C@H]1CC[C@@H]2O1 | 1.1 ± 0.49
C[C@@]12C(=O)OC(=O)[C@]1(C)[C@H]1CC[C@@H]2O1 [Cantharidin] | 0.541
COC(C)(C)CCC[C@H](C)C/C=C/C(C)=C/C(=O)OC(C)C | 1.09
CCC1(C)CC(=O)NC(=O)C1 [Bemegride] | 0.851
CCCC(C)(COC(N)=O)COC(=O)NC(C)C (stereo unspecified) [Carisoprodol] | 1.08
Oc1ccc(Cl)cc1Cc1cc(Cl)ccc1O | 0.854
Cl[C@H]1[C@H](Cl)[C@@H](Cl)[C@@H](Cl)[C@H](Cl)[C@H]1Cl | 1.12
COc1ccc(CC2c3cc(OC)c(OC)cc3CCN2C)cc1OC (racemic) ["Laudanosine (R,S)"] | 1.27
